# In the supplement of paper PMC4604168 (melanoma cell lines):
# This is one part of the list. Many values rest on one well or one pass, so single values are uncertain.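 The apoptosis fraction was the count of cleaved-PARP antibody-stained nuclei relative to all DNA-stained nuclei, imaged in 1,536-well plates. Screening doses were set so most cells survived, and baseline and induced cleaved-PARP levels vary greatly across cell lines.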
# Assays:
# Assay in all cases: cleaved PARP positive nuclei fraction relative to DMSO control; melanoma cells; higher = more apoptosis
# Conditions in all cases: library dose: low library concentration; 72 h
# MZ2-MEL = test system: MZ2-MEL
# MeWo = test system: MeWo
# RPMI7951 = test system: RPMI7951
# RVH-421 = test system: RVH-421
# SkMel28 = test system: SkMel28
# SkMel2 = test system: SkMel2
# SkMel30 = test system: SkMel30
# UACC62 = test system: UACC62
# WM115 = test system: WM115
# WM1716 = test system: WM1716
# WM1745 = test system: WM1745
# WM3526 = test system: WM3526
# WM3619 = test system: WM3619
# WM451Lu = test system: WM451Lu
Compound,cleaved PARP positive nuclei fraction (MZ2-MEL),cleaved PARP positive nuclei fraction (MeWo),cleaved PARP positive nuclei fraction (RPMI7951),cleaved PARP positive nuclei fraction (RVH-421),cleaved PARP positive nuclei fraction (SkMel28),cleaved PARP positive nuclei fraction (SkMel2),cleaved PARP positive nuclei fraction (SkMel30),cleaved PARP positive nuclei fraction (UACC62),cleaved PARP positive nuclei fraction (WM115),cleaved PARP positive nuclei fraction (WM1716),cleaved PARP positive nuclei fraction (WM1745),cleaved PARP positive nuclei fraction (WM3526),cleaved PARP positive nuclei fraction (WM3619),cleaved PARP positive nuclei fraction (WM451Lu)
"Cn1cc(C2=C(c3cn(C4CCN(Cc5ccccn5)CC4)c4ccccc34)C(=O)NC2=O)c2ccccc21 [Enzastaurin] + Cn1nnc2c(C(N)=O)ncn2c1=O [temozolomide] (first compound 0.8 µM, partner dose 2 µM)",78.4%,51.7%,99.6%,89.3%,87.8%,155%,23.6%,223%,66.9%,38.7%,115%,22.7%,85.8%,41.1%
"NC1(c2ccc(-c3nc4ccn5c(=O)[nH]nc5c4cc3-c3ccccc3)cc2)CCC1 + N.N.[Cl][Pt][Cl] [cisplatin] (first compound 0.4 µM, partner dose 1.6 µM)",172%,220%,105%,332%,227%,128%,74.8%,255%,165%,79.6%,105%,56.6%,93%,47.4%
"C=C(c1ccc(C(=O)O)cc1)c1cc2c(cc1C)C(C)(C)CCC2(C)C [Bexarotene] + C[As](C)SC[C@H](NC(=O)CC[C@H](N)C(=O)O)C(=O)NCC(=O)O [Darinaparsin] (first compound 2 µM, partner dose 0.4 µM)",190%,139%,105%,182%,118%,98.5%,69.7%,20.2%,55.2%,127%,106%,141%,118%,51.5%
"C[As](C)SC[C@H](NC(=O)CC[C@H](N)C(=O)O)C(=O)NCC(=O)O [Darinaparsin] + Cn1nnc2c(C(N)=O)ncn2c1=O [temozolomide] (first compound 0.4 µM, partner dose 2 µM)",104%,152%,94.9%,232%,47.2%,102%,145%,70.3%,80%,59.8%,76.4%,58.6%,96.5%,130%
"C[As](C)SC[C@H](NC(=O)CC[C@H](N)C(=O)O)C(=O)NCC(=O)O [Darinaparsin] + Cc1nc(Nc2ncc(C(=O)Nc3c(C)cccc3Cl)s2)cc(N2CCN(CCO)CC2)n1 [dasatanib] (first compound 0.4 µM, partner dose 0.004 µM)",56.7%,167%,209%,95.1%,115%,88.5%,72.1%,175%,95.3%,50.8%,137%,165%,93.6%,110%
"Cc1cc(Nc2cc(N3CCN(C)CC3)nc(Sc3ccc(NC(=O)C4CC4)cc3)n2)n[nH]1 [Tozasertib] + C[As](C)SC[C@H](NC(=O)CC[C@H](N)C(=O)O)C(=O)NCC(=O)O [Darinaparsin] (first compound 0.006 µM, partner dose 0.4 µM)",31.7%,171%,43.1%,158%,176%,88.1%,18.3%,97.6%,31.7%,53.2%,112%,82.2%,102%,19.7%
"Cn1cnc2c(F)c(Nc3ccc(Br)cc3Cl)c(C(=O)NOCCO)cc21 [selumetinib] + Cn1cc(C2=C(c3cn(C4CCN(Cc5ccccn5)CC4)c4ccccc34)C(=O)NC2=O)c2ccccc21 [Enzastaurin] (first compound 0.015 µM, partner dose 0.8 µM)",162%,48.7%,57.2%,86.5%,78.1%,133%,47.9%,81.9%,101%,61.5%,89.7%,49.3%,134%,23.2%
"N.N.[Cl][Pt][Cl] [cisplatin] + Nc1cccc2c1CN(C1CCC(=O)NC1=O)C2=O [lenalidomide] (first compound 1.6 µM, partner dose 1 µM)",167%,71.5%,115%,134%,77.6%,151%,64.2%,85.1%,67.8%,62.1%,98.7%,158%,109%,85.4%
